Source: the supplement of paper PMC10849652
This is one part of the list.

The chains behind the UniProt entries cited, without tags or fusion partners. Where a name states a change or a piece, a line headed by the entry shows the natural chain unless it says otherwise.
UniProt Q6FI81: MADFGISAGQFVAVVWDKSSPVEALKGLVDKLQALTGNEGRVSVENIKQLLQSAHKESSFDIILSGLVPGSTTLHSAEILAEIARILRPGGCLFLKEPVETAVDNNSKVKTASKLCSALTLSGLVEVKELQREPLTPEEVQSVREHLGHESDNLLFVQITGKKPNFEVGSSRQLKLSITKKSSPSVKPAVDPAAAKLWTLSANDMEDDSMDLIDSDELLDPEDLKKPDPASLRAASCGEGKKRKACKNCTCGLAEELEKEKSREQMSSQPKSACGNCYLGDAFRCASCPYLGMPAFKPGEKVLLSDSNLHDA
UniProt P62633: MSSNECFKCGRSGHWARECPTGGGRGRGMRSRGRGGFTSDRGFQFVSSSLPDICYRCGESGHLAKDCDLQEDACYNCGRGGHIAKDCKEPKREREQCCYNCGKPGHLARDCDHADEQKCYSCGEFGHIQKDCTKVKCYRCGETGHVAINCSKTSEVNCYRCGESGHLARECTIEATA
UniProt P09496: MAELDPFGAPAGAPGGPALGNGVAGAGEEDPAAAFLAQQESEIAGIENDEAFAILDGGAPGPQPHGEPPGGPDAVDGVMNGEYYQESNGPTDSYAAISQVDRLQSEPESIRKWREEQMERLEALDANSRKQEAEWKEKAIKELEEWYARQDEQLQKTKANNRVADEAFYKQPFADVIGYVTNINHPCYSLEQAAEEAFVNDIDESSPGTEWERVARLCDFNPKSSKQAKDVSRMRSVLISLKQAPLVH
UniProt P51788: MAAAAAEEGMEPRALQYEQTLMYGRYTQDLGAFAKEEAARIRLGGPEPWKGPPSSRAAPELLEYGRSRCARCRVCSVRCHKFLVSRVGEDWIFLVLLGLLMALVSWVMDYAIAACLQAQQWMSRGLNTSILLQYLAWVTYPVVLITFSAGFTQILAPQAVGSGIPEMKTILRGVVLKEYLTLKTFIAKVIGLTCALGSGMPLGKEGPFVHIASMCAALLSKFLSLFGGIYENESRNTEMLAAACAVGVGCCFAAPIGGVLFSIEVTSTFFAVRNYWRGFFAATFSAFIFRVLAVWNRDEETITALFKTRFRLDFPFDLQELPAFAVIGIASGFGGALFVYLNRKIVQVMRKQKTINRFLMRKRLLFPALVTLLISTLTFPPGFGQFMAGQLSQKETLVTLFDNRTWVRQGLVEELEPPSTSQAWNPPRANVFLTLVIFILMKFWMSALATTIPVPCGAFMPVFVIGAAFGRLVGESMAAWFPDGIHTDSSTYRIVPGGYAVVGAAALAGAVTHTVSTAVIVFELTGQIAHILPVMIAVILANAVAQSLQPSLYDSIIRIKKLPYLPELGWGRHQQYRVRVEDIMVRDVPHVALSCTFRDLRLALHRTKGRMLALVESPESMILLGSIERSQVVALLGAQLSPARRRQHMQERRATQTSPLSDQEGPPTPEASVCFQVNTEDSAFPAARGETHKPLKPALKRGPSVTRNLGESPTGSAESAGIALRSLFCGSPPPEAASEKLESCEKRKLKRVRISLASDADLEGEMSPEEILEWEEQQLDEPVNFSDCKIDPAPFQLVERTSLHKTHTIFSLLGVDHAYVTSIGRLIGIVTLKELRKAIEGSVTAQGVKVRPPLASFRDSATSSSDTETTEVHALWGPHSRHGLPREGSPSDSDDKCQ
UniProt Q9ULM6, whole entry, looked up: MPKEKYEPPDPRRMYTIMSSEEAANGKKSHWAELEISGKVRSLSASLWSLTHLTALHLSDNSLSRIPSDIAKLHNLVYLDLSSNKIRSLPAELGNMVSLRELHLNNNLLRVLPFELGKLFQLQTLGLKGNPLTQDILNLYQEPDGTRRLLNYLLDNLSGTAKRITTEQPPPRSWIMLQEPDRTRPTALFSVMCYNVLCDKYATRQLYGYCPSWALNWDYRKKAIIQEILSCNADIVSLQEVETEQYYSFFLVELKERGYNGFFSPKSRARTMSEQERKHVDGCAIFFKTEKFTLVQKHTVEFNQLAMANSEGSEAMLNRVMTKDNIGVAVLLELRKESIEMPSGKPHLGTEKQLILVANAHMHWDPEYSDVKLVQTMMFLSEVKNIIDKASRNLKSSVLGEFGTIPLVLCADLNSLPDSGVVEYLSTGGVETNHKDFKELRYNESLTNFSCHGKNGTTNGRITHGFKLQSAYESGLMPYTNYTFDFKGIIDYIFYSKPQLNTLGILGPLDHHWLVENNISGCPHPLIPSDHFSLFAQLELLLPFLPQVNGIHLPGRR
UniProt P12277: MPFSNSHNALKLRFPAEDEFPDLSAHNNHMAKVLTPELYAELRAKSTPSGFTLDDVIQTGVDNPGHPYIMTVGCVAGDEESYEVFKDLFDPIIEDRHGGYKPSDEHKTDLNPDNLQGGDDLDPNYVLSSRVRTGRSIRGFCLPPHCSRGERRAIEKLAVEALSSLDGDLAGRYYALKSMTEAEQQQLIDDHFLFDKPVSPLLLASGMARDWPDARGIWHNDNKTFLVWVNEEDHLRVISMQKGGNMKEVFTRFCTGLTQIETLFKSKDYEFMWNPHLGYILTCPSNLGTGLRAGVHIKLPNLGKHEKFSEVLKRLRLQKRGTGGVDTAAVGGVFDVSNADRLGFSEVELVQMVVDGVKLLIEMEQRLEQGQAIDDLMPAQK
UniProt O75122: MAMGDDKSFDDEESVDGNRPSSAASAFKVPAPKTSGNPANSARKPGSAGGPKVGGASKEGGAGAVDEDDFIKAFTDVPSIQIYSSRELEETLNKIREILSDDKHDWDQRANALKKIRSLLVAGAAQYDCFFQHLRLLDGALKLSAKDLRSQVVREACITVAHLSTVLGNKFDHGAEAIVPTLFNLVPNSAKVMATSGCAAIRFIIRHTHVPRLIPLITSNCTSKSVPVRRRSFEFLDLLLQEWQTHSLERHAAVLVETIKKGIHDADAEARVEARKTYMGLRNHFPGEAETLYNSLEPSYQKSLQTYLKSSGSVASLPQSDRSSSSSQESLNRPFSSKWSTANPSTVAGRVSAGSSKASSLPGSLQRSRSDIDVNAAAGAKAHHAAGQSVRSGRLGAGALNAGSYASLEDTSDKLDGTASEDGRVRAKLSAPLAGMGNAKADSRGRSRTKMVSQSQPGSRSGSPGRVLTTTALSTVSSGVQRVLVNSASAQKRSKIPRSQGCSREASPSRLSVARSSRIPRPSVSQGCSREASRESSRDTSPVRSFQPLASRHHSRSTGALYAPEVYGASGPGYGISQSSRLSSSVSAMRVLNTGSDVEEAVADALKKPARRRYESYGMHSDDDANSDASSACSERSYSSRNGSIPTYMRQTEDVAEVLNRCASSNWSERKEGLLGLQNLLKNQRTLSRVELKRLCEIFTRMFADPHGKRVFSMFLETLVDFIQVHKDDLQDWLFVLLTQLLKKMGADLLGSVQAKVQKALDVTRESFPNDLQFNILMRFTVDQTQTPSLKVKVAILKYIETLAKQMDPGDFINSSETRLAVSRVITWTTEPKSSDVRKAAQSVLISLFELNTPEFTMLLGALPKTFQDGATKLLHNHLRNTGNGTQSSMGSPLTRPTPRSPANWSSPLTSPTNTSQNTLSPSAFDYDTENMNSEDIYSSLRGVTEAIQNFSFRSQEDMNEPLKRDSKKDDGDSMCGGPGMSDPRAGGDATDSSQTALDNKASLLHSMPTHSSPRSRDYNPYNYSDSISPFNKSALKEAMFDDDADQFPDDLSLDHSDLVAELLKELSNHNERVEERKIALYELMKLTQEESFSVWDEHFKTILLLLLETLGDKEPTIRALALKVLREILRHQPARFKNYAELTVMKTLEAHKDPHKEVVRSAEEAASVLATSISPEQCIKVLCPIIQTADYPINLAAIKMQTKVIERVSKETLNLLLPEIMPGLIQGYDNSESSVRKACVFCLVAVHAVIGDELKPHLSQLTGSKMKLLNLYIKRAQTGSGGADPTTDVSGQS
UniProt Q8NE01: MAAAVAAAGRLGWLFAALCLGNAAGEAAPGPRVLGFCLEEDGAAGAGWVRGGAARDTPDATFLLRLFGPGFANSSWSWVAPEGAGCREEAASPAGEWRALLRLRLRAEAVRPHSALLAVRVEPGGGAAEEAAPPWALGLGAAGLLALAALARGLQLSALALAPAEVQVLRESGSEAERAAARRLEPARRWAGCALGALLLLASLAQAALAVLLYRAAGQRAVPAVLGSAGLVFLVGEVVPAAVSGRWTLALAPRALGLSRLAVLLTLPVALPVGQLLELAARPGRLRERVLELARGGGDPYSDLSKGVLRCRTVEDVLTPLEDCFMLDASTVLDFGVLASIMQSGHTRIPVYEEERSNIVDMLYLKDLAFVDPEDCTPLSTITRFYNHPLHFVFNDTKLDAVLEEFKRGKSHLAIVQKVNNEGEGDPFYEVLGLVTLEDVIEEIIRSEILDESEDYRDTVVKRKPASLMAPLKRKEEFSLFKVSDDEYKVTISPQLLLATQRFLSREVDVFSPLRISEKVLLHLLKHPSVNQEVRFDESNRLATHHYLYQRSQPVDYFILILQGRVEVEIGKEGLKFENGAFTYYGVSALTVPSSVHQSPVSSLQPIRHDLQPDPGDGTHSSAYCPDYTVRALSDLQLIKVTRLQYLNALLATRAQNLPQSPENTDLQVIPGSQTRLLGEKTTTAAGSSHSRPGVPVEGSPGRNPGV
UniProt P05452, whole entry, looked up: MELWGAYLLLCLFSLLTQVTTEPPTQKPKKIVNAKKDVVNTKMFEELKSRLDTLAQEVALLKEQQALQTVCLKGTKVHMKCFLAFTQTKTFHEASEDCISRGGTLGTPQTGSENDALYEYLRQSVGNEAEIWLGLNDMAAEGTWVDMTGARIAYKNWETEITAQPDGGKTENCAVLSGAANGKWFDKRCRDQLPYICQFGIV
UniProt Q5EBM0: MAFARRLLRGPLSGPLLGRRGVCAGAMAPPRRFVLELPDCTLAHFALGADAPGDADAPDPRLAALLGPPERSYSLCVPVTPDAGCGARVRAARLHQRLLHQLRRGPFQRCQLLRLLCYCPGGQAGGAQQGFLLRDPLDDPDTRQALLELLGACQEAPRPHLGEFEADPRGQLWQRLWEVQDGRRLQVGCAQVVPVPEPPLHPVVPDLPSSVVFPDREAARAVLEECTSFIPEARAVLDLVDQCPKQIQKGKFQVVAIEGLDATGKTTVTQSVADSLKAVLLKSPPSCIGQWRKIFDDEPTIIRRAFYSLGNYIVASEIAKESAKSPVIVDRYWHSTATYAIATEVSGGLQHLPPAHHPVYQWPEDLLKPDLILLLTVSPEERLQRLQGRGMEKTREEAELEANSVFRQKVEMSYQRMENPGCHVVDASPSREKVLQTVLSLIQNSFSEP
UniProt Q86X95: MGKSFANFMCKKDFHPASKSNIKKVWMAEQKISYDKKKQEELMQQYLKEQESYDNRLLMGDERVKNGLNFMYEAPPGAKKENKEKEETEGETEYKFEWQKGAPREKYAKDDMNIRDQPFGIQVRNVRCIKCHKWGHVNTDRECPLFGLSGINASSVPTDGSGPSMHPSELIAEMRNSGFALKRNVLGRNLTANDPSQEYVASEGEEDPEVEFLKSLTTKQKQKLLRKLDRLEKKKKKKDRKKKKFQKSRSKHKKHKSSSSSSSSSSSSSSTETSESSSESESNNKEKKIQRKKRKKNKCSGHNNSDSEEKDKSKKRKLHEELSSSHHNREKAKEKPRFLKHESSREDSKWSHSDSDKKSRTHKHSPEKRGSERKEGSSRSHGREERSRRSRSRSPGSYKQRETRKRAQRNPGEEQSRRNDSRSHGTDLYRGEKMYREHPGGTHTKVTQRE
UniProt Q96JB2: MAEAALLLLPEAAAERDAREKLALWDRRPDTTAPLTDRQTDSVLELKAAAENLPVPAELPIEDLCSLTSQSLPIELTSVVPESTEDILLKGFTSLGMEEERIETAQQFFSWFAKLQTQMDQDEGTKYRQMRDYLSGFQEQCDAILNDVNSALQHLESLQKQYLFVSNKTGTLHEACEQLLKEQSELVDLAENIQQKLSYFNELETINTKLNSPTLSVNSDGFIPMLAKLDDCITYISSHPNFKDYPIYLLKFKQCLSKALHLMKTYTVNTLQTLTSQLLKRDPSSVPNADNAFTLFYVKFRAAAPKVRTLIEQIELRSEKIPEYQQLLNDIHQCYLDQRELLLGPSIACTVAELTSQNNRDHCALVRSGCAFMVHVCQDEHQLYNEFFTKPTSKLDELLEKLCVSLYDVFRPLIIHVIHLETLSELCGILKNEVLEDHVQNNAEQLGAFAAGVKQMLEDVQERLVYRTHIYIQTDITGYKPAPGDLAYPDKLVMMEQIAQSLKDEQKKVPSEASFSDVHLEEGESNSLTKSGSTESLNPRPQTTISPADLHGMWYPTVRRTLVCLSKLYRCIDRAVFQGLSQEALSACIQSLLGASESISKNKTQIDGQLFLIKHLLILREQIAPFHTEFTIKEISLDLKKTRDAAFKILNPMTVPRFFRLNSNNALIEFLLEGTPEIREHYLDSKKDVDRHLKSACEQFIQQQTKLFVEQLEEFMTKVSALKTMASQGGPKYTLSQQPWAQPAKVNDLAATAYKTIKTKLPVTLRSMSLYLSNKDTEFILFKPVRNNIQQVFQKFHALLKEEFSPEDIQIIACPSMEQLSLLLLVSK

What was measured:
Assay in all cases: log2 fold change, soluble protein after heating vs DMSO (PISA); higher = thermal stabilisation; K562 cells, 10 uM, 30 min; active = over 0.2 and 3.5 SD of the protein, either way, in both replicates (recomputed)
[1] = compound: C1=CC=C(C=C1)[C@H](COC2=CC3=C(C=C2)NC(=O)N3)NC(=O)C4=CC=CN(C4=O)CC5=CC(=C(C=C5)F)F
Method in brief: (§1)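 K562 cells at 2×10^6 cells/mL were given 10 μM compound for 30 min. Aliquots then went through 3 min of heating across 48°C-58°C, were pooled, and were extracted in PBS with 0.5% NP-40 at 4°C, and the supernatant after 21,000xg for 90 min was quantified by TMTpro 16plex LC-MS/MS with channel sums equalised. Thermal stability relative to control samples, from duplicates, is given as log2 fold change.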

[2] = compound: CC1=C(SC2=C1C(=N[C@H](C3=NN=C(N32)C)CC(=O)N)C4=CC=C(C=C4)Cl)C
Method in brief: as §1

[3] = compound: CC1=C2C(=CC=C1)N=C(N(C2=O)C3=CC=CC=C3C)CN4C=NC5=C(N=CN=C54)N
Method in brief: as §1

[4] = compound: Cc1sc2c(c1C)C(c1ccc(Cl)cc1)=N[C@@H](CC(=O)OC(C)(C)C)c1nnc(C)n1-2
Method in brief: as §1

[5] = compound: c1ccc([C@@H]2C[C@H]2NC2CCNCC2)cc1
Method in brief: as §1

Measured: log2 fold change

CIAPIN1 (UniProt Q6FI81)
inactive: [1] -0.026 | [2] 0.056 | [3] 0.051 | [4] -0.014 | [5] -0.027

CKMT2 (UniProt P17540)
inactive: [1] 0.084 | [2] 0.037 | [3] 0.091 | [4] 0.056 | [5] 0.027

CNBP isoform 6 (UniProt P62633)
inactive: [1] -0.003 | [2] -0.151 | [3] -0.052 | [4] 0.061 | [5] 0.106

CLTA isoform 2 (UniProt P09496)
inactive: [1] 0.025 | [2] -0.057 | [3] -0.025 | [4] 0.006 | [5] 0.053

Taken from the listing (three entries):
CKMT2 (UniProt P17540)
inactive: [1] 0.084 | [2] 0.037 | [3] 0.091 | [4] 0.056 | [5] 0.027

CNBP isoform 6 (UniProt P62633)
inactive: [1] -0.003 | [2] -0.151 | [3] -0.052 | [4] 0.061 | [5] 0.106

CLTA isoform 2 (UniProt P09496)
inactive: [1] 0.025 | [2] -0.057 | [3] -0.025 | [4] 0.006 | [5] 0.053

Going on with the list:

CLCN2 (UniProt P51788)
inactive: [1] 0.028 | [2] 0.04 | [3] 0.014 | [5] 0.005

CNOT6 (UniProt Q9ULM6)
inactive: [1] -0.093 | [2] 0.098 | [3] 0.102 | [5] 0.03

CKB (UniProt P12277)
inactive: [1] -0.1 | [2] 0.01 | [3] 0.038 | [4] -0.022 | [5] -0.118

CLASP2 isoform 3 (UniProt O75122)
inactive: [1] -0.065 | [2] 0.053 | [3] 0.091 | [4] -0.024 | [5] -0.014

CNNM3 (UniProt Q8NE01)
inactive: [1] -0.025 | [2] 0.048 | [3] 0.08 | [4] -0.035 | [5] -0.063

CLEC3B (UniProt P05452)
inactive: [1] -0.101 | [2] -0.086 | [3] -0.027 | [4] -0.077 | [5] 0.21

CMPK2 (UniProt Q5EBM0)
inactive: [1] -0.022 | [2] -0.009 | [3] 0.094 | [4] 0.002 | [5] -0.022

CIR1 (UniProt Q86X95)
inactive: [1] -0.075 | [2] -0.286 | [3] -0.241 | [4] 0.198 | [5] 0.217

COG3 (UniProt Q96JB2)
inactive: [1] 0.138 | [2] -0.046 | [3] -0.047 | [5] -0.066
